Patent US9303064B2 (CAREGEN CO., LTD., priority 2011, dated 2016)
Plain letter strings leave the end groups untold.

Assay: peptide synthesis
Details: whole synthesis

SIPCKLQSG showed a crude yield of 93%.
